Test results as given in PMC4712785.
No constants are given. Whether binding was seen depends on the method and setting. Binding seen in cells or lysates may run through a third protein. Some entries that bind do so weakly or less than the wild type. For part of these data: Tags and fused reporters may be left off the sequences shown.

Key:
Test in all cases: pull-down; ~5 µg GST or GST–GTPase on glutathione-agarose beads incubated with [35S]Met-labeled in vitro translated α-arrestins, 4°C, 2 h, 20 mM HEPES pH 7.4, 150 mM NaCl, 5 mM MgCl2, 10% glycerol, 0.1% Triton X-100; phosphorimager; GST–Rho1 also nucleotide-free or with 0.2 mM GTPγS or GDPβS; only the target purified
[1] = target: T1, GST–Rho1^Q68L (constitutively active, GTP-locked mutant) (S. cerevisiae) (UniProt P06780)
T1 sequence: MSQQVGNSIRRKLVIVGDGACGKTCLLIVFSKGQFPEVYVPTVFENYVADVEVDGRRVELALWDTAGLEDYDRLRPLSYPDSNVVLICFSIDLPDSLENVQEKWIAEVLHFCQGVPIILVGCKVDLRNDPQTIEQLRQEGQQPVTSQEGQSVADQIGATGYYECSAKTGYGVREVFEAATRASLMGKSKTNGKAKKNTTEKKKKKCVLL

[2] = target: GST–Rho1 (S. cerevisiae) (UniProt P06780)
[3] = target: GST–Rho1^G22A (nucleotide-free mutant) (S. cerevisiae) (UniProt P06780)
[4] = target: T2, GST–Ras2 (S. cerevisiae) (UniProt P01120)
T2 sequence: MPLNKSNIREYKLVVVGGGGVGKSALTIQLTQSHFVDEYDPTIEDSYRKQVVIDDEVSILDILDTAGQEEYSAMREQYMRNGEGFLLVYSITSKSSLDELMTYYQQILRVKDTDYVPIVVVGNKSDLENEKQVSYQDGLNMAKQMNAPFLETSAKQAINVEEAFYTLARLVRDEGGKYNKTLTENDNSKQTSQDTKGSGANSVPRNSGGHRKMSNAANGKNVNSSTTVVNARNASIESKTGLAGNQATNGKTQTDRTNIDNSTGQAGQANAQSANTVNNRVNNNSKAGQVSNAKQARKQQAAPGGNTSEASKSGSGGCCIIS

Measured: binding

B1: Aly1, in vitro transcribed-translated and radiolabeled (protein, UniProt P36117 1-915)
chain: MLQFNTENDTVAPVFPMEQDINAAPDAVPLVQTTTLQVFVKLAEPIVFLKGFETNGLSEIAPSILRGSLIVRVLKPNKLKSISITFKGISRTEWPEGIPPKREEFSDVETVVNHTWPFYQADDGMNSFTLEHHSSNNSSNRPSMSDEDYLLEKSGASVYIPPTAEPPKDNSNLSLDAYERNSLSSDNLSNKPVSSDVSHDDSKLLAIQKTPLPSSSRRGSVPANFHGNSLSPHTFISDLFTKTFSNSGATPSPEQEDNYLTPSKDSKEVFIFRPGDYIYTFEQPISQSYPESIKANFGSVEYKLSIDIERFGAFKSTIHTQLPIKVVRLPSDGSVEETEAIAISKDWKDLLHYDVVIFSKEIVLNAFLPIDFHFAPLDKVTLHRIRIYLTESMEYTCNSNGNHEKARRLEPTKKFLLAEHNGPKLPHIPAGSNPLKAKNRGNILLDEKSGDLVNKDFQFEVFVPSKFTNSIRLHPDTNYDKIKAHHWIKICLRLSKKYGDNRKHFEISIDSPIHILNQLCSHANTLLPSYESHFQYCDEDGNFAPAADQQNYASHHDSNIFFPKEVLSSPVLSPNVQKMNIRIPSDLPVVRNRAESVKKSKSDNTSKKNDQSSNVFASKQLVANIYKPNQIPRELTSPQALPLSPITSPILNYQPLSNSPPPDFDFDLAKRGAADSHAIPVDPPSYFDVLKADGIELPYYDTSSSKIPELKLNKSRETLASIEEDSFNGWSQIDDLSDEDDNDGDIASGFNFKLSTSAPSENVNSHTPILQSLNMSLDGRKKNRASLHATSVLPSTIRQNNQHFNDINQMLGSSDEDAFPKSQSLNFNKKLPILKINDNVIQSNSNSNNRVDNPEDTVDSSVDITAFYDPRMSSDSKFDWEVSKNHVDPAAYSVNVASENRVLDDFKKAFREKRK
modifications: [35S]Met-labeled
binds: [1] | [2] | [3]

B2: Aly2, in vitro transcribed-translated and radiolabeled (protein, UniProt P47029 1-1046)
chain: MPMDQSISSPLFPMEKDIDIPLDATPLAQSSSLQLFIHLAEPVVFLQGFDPQKTEYPSVVLRGCLVVRILKPTKLKSISLSFKGYSRTEWPEGIPPKRQEFVEIKDIVDHTWALYPPTEQKSKKKMDASAPNESNNAANNFLTKESGASLYRTLSDNETITSRKNSISGLSSLNLSPLGAPGNSSVNVKDRESRQRSRSSSVTSSNGPSRNLSPINLLKRATSPSVSHHNYKPTTTSIFSDLLNNTFTHNDAASHHGHHIPTSSNHLAMTSNNFTSGSGGEFFVFQPGDYIYAFEELIPQAYPESIKADFGFVEYFLFASIERPGAFKSNISARQVVNIVRTQAHNSVEESEPIIISRDWENQLYYDIVIASKDIILDAFLPITFKFAPLDKVTLHRIRIYVTETMEYYCREKKVHRMEPTKKFLLTEQKGPKLPNLPNDANLSKAKNMGNLLQDPKNGDLVNKEYEYQIFIPSRFNNHQQLHPDTSYENIKANHWIKICLRLSRVVDNKRKHYEISIDSPIHVLHRLCSHANTLLPSYDGHPASFPKETDSSISSILESSDDNINLYHNSNIFFPKEVLSSPVLSPNVQPLDILIPHLPSTSLTRNSRQFNRNSKSHPSDNTIFNSAKLKSNIYQPESLQRELASPQAIPLSPITSPMSNMEVPPPDFDFSSDFISDAASGTTTTEVSSSESSILPRDPPSYKDTVLHDNNQKRRPNSKHPTPPSLKASHPNKNSDKNSSETLNKKESMSKIEENKHKRETTPKKRENRDVKSLSTPQREESKDSTSTGNQSNEKNRKRVLSLSSSLHSSPNNSGFAHSALGNLSNESLRSLNRRESVQDNLPSTIRHDNPFFTDLNQVLIEDELKNHDKNELNRHSTNTSSTPASARSSFDYSGINISKDKLNMEPLLSKTETLTNKVNEDSFLRPNDSYVDLLEPSVDTTIDITAPYARNSSAWHPLQNDNDNNQFSPLLGSNENFLNAANAQNSAESDHNNDIFTQGSGLTESSKNSDSEERFISRLSSPEKVLINTLDNESGLQSINESTL
modifications: [35S]Met-labeled
binds: [1] | [2] | [3]

B3: Ldb19, in vitro transcribed-translated and radiolabeled (protein, UniProt Q12502 1-818)
chain: MAFSRLTSTHQSNHNGYSNSNKKGQSLPLTLSIDVESPPCVLYGSAMESSGAVLSGLFTVTVVDPYSSAEDKSLKNTESNVSTTSKSLKRKSTFGSALSSRLSSLSASTSNISPSTSSTSISHSPTPANLRIMAGYTKITITSVTLSLVQKIHFHKPFVPNISSMQTCMNCKTKITNMKSWEIQSNTQDLSVGSHSYPFSYLIPGSVPCSSSLGATAETQVKYELIAVVTYIDPHRNSFSSGHSTPRKEGSSSKKRLLQLAMPIAVTRSIPRGPDKNSLRVFPPTELTAAAVLPNVVYPKSTFPLEMKLDGVSSGDRRWRMRKLSWRIEETTRVKAHACPVHKHELRQLEEQVKIKESEKSKKPRSHIKRYGELGPQIRVAVNSLENMPSQRLPGEPGREQAPNSSGPASTGNVGLDDENPVNEDEEDQPGSEFIHPSDDALRQELLMQQQRARQQQLQQELKNNSSLFTEEVRIISKGEMKSGWKTDFDNNGKIELVTEIDCMGLNSGVSNPVMHASTLQTPSTGNKKPSINVACDIQDPNLGLYVSHILAVEIVVAEETLQYANGQPIRKPNSKNKKETNNNTMNVHNPDQRLAELSPIFANRNTPKVRRMGPEDITPVNSNKSNHSTNKEKASNGASNSNIVSVPTGAARVLRMQFRLTVTERSGLGISWDEEVPPIYQDVELLSPPCYELSINNGIKNKLYSTMSTPVRSEDDFVGGSDEDIGNYESQGLEPGPNVQEVTITQNKLTIPPTAHHYQPASSSQRSLTTVQSPPLESVVSVQGSVPFRGHVLTPHSTRDIRIQNFSDFLDSNRITQ
modifications: [35S]Met-labeled
binds: all assays above

B4: Rog3, in vitro transcribed-translated and radiolabeled (protein, UniProt P43602 1-733)
chain: MGFSSGKSTKKKPLLFDIRLKNVDNDVILLKGPPNEAPSVLLSGCIVLSINEPMQIKSISLRLYGKIQIDVPLERPQDASSSSLSSSPPKIRKYNKVFYNYAWDNVNLKEYLSGLRGQSGLAGSSSSSNILGTRQRAQSTSSLKSLKGSSSPSSCTLDKGNYDFPFSAILPGSLPESVESLPNCFVTYSMESVIERSKNYSDLICRKNIRVLRTISPAAVELSETVCVDNSWPDKVDYSISVPNKAVAIGSATPINISIVPLSKGLKLGSIKVVLFENYQYCDPFPPVISENRQVTELNLEDPLNESSGEFNGNGCFVNNPFFQPDHSFQDKWEIDTILQIPNSLSNCVQDCDVRSNIKVRHKLKFFIILINPDGHKSELRASLPIQLFISPFVALSIKPLSSSNLYSLFSTTNQKDENSSQEEEEEYLFSRSASVTGLELLADMRSGGSVPTISDLMTPPNYEMHVYDRLYSGSFTRTAVETSGTCTPLGSECSTVEDQQQDLEDLRIRLTKIRNQRDNLGLPPSASSAAASRSLSPLLNVPAPEDGTERILPQSALGPNSGSVPGVHSNVSPVLLSRSPAPSVSAHEVLPVPSGLNYPETQNLNKVPSYGKAMKYDIIGEDLPPSYPCAIQNVQPRKPSRVHSRNSSTTLSSSIPTSFHSSSFMSSTASPISIINGSRSSSSGVSLNTLNELTSKTSNNPSSNSMKRSPTRRRATSLAGFMGGFLSKGNKR
modifications: [35S]Met-labeled
binds: [4] | [2]
